From US20200010413A1, “Benzoquinone derivatives for treatment of cancer and methods of making the benzoquinone derivatives” (United Arab Emirates University, priority 2016, published 2020)
Some entries share one result that the patent states for a list of compounds. Some compounds share one range, which may span the group rather than tell each member.

System: telomeric G-quadruplex DNA
Assay: Melting temperature curves by CD, G-quadruplex-BQs complexes
Format: binding, human
Conditions: from differences between ΔTm (G-quadruplex) and ΔTm (ct-DNA)
Procedure: Melting temperature curves for telomere G-quadruplex, ct-DNA and their BQs' adducts were constructed using CD spectral measurements. A 1.0 ml telomeric G-quadruplex (3.93×10^−6 M) or ct-DNA (100.00 ppm) in Tris-KCl-buffer, pH 7.4 was heated in the range 25-95° C. applying 2.0-5.0° C. increments and using 5 min incubation time intervals. The CD spectra in the range 200-400 nm were recorded at each temperature using the scan parameters described in previous section. BQs complexes with G-quadruplex or ct-DNA were prepared by mixing equimolar amounts of G-quadruplex (1.44×10^−4 M) with BQs (1×10^−4 M) or ct-DNA (1000 ppm) with BQs (1×10^−4 M) solution in 1.0 ml KCl-buffer pH 7.4. Solutions were incubated for 30 min before scan. Collected CD spectra were smoothed and baseline corrected against blank solution. Intensities of CD peaks for G-quadruplex, ct-DNA and their BQs' complexes at 293 and 282 nm were recorded. Plots of CD intensities versus temperature were constructed.

`O=C1C=C(Nc2cccc(C(F)(F)F)c2)C(=O)C=C1Nc1cccc(C(F)(F)F)c1` [BQ1, 2,5-bis-(3-trifluoromethylanilino)-1,4-benzoquinone] was tested, and the “selectivity towards G-quadruplex over ct-DNA” value was 1.0-3.0 folds.
For `O=C1C=C(NCc2ccc(F)cc2)C(=O)C=C1NCc1ccc(F)cc1` [BQ11, 2,5-bis-(4-fluorobenzylamino)-1,4-benzoquinone], the “selectivity towards G-quadruplex over ct-DNA” value was 1.0-3.0 folds.
With `O=C1C=C(NCCN2CCCC2)C(=O)C=C1NCCN1CCCC1` [BQ9, 2,5-bis((2-(pyrrolidin-1-yl)ethyl)amino)-1,4-benzoquinone] the “selectivity towards G-quadruplex over ct-DNA” value was 1.0-3.0 folds.
For `O=C1C=C(NCc2ccccc2)C(=O)C=C1NCc1ccccc1` [BQ13, 2,5-bis-(benzylamino)-1,4-benzoquinone], the “selectivity towards G-quadruplex over ct-DNA” value was 1.0-3.0 folds.
